Source: PMC2852416, “Modular Insulators: Genome Wide Search for Composite CTCF/Thyroid Hormone Receptor Binding Sites”
The exact form of at least one protein or probe is not confirmed. For some assays here: Negatives hold for the conditions tested. For some assays here: At least one verdict was read from the data and is not stated in words by the source.

system: GST-CTCF-ZF; assay: competition with a labelled probe; conditions: unlabelled competitor against F1 probe, Zn2+; PBS pH 7.4, 5 mM MgCl2, 1 mM ZnCl2, 1 mM DTT, 0.1% NP-40, 10% glycerol, 200 ng/ul pdIdC, 25-100 ng/ul salmon sperm DNA, 20 min room temperature; 5% PAGE in TAE at 4 C; recombinant protein; protein details: GST

Sequence	binding result
CTAGATGAAGAAATTGAGATTTCTACTGGATAGCTATGGTATTTACGTGTCTA / AGCTTAGACACGTAAATACCATAGCTATCGAGTAGAAATCTCAATTTCTTCAT [F1mut CTS]	no binding

system: GST; assay: EMSA; conditions: PBS pH 7.4, 5 mM MgCl2, 1 mM ZnCl2, 1 mM DTT, 0.1% NP-40, 10% glycerol, 200 ng/ul pdIdC, 25-100 ng/ul salmon sperm DNA, 20 min room temperature; 5% PAGE in TAE at 4 C; recombinant protein; label: 32P

Sequence	binding result
ACCCGAGGGCACCAGAGGGCACGAGA (double strand) [COMT DR4]	no binding

system: GST-CTCF-ZF; assay: EMSA; conditions: Zn2+; PBS pH 7.4, 5 mM MgCl2, 1 mM ZnCl2, 1 mM DTT, 0.1% NP-40, 10% glycerol, 200 ng/ul pdIdC, 25-100 ng/ul salmon sperm DNA, 20 min room temperature; 5% PAGE in TAE at 4 C; recombinant protein; protein details: GST; label: 32P

Sequence	binding result
AACAGCCATAAAACGCCGCCCAGAAGGGGGCAGTGACCAAAAGCACGTTC (double strand) [LRP1 CTS]	binds
AACCATGCTCAGCCACAGTGGCCTCTGCAGGTTGAGGAGGGATTCGCTGT (double strand) [PCK1 CTS]	binds
AGCAAGTACAGTATCTGTCTGCCCCCTAGTGTAAGAGTCCTCGCTGCCTAAA (double strand) [NR2F1 CTS]	binds
CCCATTACCAACTCCTAGTGCCCCCCTGTGGCCACTTTGAGAATCACACT (double strand) [PER1 CTS]	binds
CCTGCTCTGTCTACCCGAGGGCACCAGAGGGCACGAGAAGGCTGGCTCCCTG (double strand) [COMT CTS1]	binds
GAAGGCGTGCCCATGGCAACCGCTAGGTGGTGCCCGTACACCACCAGCCA (double strand) [BCL3 CTS]	binds
GGTCACTGGCCTCCCTCCCGCCCCCTTCAGGACATTCTACTATCTTCTTA (double strand) [LMNA CTS]	binds
GGTTCCTCGAATCACACATGCGGCGCCCCCTGGTGGGGAGACCTTTCGGT (double strand) [ESRRA CTS]	binds
TGAACCTTGCCCCTCTGCAAACACAAGGGGGCGATGGTGGCACTCCAAGCAA / TTGCTTGGAGTGCCACCATCGCCCCCTTGTGTTTGCAGAGGGGCAAGGTT [COMT CTS2]	binds
